Experimental findings from publication PMC12637930 are described below.

The target in the assay is T1, CiLV-C p29 fused to NYFP or CYFP (BiFC construct) (CiLV-C) (UniProt Q1KZ58).
T1 sequence: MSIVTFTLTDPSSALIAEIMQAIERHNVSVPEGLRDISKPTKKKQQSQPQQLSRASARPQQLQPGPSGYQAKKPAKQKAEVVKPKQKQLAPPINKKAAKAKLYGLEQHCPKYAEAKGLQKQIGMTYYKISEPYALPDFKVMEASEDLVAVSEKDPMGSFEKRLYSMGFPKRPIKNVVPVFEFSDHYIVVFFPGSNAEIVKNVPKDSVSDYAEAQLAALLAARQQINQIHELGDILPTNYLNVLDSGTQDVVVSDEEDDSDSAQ
In words: split reporter; BiFC (split YFP) in N. benthamiana leaf cells, co-expression, fluorescence captured at 3 dpi.

These are yes or no findings as the source states them, for the method shown. Binding seen in cells or lysates may run through a third protein. Binding can be weak; no strength is given. Sequences can lack the tags named with a protein.

Regarding “PABP fused at its C-terminus to a split YFP fragment (BiFC construct)”, the binding entry is listed as “binds”. For the substance “eIF4E fused at its C-terminus to a split YFP fragment (BiFC construct)”, the binding result was “binds”.
